From PMC8134555 come the findings set out here.

Amino acid sequences for entries named in this document (tags omitted).
UniProt P13010: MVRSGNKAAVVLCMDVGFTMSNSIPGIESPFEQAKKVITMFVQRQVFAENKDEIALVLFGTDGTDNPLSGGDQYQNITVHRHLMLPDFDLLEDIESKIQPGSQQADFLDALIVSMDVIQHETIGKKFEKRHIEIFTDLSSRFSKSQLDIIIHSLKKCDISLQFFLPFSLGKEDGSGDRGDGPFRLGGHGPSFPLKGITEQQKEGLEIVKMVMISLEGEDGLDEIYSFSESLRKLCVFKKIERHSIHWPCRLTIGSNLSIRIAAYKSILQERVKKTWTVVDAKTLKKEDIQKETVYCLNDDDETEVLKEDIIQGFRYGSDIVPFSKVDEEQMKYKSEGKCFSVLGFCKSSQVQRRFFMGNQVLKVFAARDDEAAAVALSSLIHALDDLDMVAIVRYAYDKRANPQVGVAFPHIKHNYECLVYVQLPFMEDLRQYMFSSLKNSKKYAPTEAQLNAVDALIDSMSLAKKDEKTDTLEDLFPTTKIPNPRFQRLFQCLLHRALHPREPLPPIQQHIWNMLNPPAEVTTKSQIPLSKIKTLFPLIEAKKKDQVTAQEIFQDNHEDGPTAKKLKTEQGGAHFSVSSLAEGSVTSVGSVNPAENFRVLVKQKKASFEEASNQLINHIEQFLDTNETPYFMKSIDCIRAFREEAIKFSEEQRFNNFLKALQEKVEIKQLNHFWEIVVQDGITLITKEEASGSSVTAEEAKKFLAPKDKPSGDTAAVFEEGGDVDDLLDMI
UniProt P09874: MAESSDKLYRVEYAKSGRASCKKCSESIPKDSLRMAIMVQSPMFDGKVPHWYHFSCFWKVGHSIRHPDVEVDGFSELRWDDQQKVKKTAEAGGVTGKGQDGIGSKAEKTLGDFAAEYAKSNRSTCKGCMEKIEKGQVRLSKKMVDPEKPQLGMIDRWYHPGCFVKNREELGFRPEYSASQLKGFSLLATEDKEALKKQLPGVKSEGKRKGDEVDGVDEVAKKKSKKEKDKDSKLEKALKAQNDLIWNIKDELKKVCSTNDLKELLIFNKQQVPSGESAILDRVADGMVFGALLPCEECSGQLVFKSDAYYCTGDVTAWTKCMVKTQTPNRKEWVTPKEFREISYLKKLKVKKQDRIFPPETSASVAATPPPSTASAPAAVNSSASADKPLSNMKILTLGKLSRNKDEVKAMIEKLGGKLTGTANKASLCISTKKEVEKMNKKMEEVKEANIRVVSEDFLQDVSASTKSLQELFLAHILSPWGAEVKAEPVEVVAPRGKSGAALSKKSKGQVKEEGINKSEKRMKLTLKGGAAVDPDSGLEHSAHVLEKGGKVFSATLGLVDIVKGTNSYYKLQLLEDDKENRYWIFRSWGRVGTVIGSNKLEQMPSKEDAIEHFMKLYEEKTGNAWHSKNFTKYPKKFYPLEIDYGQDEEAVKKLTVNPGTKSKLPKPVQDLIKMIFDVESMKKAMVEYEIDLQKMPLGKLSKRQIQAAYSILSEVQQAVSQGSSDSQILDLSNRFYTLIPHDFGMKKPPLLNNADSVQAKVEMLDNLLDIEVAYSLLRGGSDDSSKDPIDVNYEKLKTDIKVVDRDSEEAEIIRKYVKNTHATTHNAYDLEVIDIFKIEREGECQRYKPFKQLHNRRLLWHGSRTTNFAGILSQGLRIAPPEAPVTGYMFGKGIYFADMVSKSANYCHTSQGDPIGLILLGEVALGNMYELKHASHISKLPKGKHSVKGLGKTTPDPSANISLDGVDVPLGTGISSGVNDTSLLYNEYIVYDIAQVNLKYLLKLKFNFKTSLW

These are yes or no findings as the source states them, for the method shown. For some of these results: In cells and extracts the contact can be indirect. Some results given as binding are weak or reduced against the parent protein; the word gives no strength. For some of these results: Where a sequence is shown, tags or fusion partners need not be part of it.

Experiment [1] concerns the target T1, macrophage migration inhibitory factor (MIF), endogenous (human (endogenous in MDA-MB-231 and HeLa)) (UniProt P14174).
T1 sequence: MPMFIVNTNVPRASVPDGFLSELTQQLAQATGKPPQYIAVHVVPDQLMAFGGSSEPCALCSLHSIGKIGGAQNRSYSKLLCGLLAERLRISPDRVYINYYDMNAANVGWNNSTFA
The experiment can be described thus: co-IP; endogenous proteins, MDA-MB-231 lysate in NETN buffer (150 mM NaCl, 1 mM EDTA, 10 mM Tris-HCl pH 8.0, 0.5% IGEPAL), antibodies to MIF or PCNA with protein A/G magnetic beads overnight at 4 °C, immunoblot; also with or without Olaparib (5 uM, 2 h) after double thymidine synchronisation (more MIF-PCNA with Olaparib). On the technique in general: A western blot detects proteins with antibodies after separation by electrophoresis.

The target in the next experiment is T2, GST-MIF-WT (human) (UniProt P14174).
T2 sequence: T1 sequence
The experiment in a line: pull-down; GST-MIF on GSH beads (500 ng) with 75 ng PCNA or 5 U PARP1 recombinant protein or GST protein, 0.2% Triton X-100, 50 mM Tris-HCl pH 7.5, 100 mM NaCl, 15 mM EGTA, 1 mM DTT, overnight 4 °C, immunoblot; both purified.

Experiment [2] addresses T1, macrophage migration inhibitory factor (MIF), endogenous (human (endogenous in MDA-MB-231 and HeLa)). The experiment can be described thus: co-IP; V5-tagged full-length PARP1 and truncates with MIF; cells and antibodies not stated.

Consider “XRCC5, endogenous (from UniProt P13010 1-732)”, for which the binding result in experiment [1] is “binds”. In the case of “PARP1 recombinant protein (from UniProt P09874 1-1014) (enzyme)”, the binding result in the experiment with GST-MIF-WT (human) was “binds”. For “V5-tagged full-length (FL) PARP1 (from UniProt P09874 1-1014) (enzyme)”, the binding result in experiment [2] is listed as “binds”. Turning to “poly(ADP-ribose) polymerase 1 (PARP1), endogenous (from UniProt P09874 1-1014)”, in experiment [1], the binding entry is on record as “binds”.
